# Measurements as given in the supplement of paper PMC8728848.
# The list shows a part of the results.
# Assays:
# Assay in all cases: glycan array binding signal (z-score within array); higher = stronger binding
# Settings in all cases: glycan notation: IUPAC condensed, linker removed
# [1] = target: Gal(b1-3)GlcNAc(b1-2)Man(a1-3)[Gal(b1-3)GlcNAc(b1-2)Man(a1-6)]Man(b1-4)GlcNAc(b1-4)[Fuc(a1-6)]GlcNAc
# Outline: (§1)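 The binding signal is a Z-score computed within each array and averaged over linkers. Arrays of the same protein sequence at different concentrations or buffers were also averaged together. Data originate from 3228 arrays in the Consortium for Functional Glycomics database, kept only where the protein sequence was available.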
# [2] = target: Gal(b1-3)GlcNAc(b1-2)Man(a1-3)[GlcNAc(b1-4)][Gal(b1-3)GlcNAc(b1-2)Man(a1-6)]Man(b1-4)GlcNAc(b1-4)GlcNAc
# Outline: as §1
# [3] = target: Gal(b1-3)GlcNAc(b1-2)[Gal(b1-3)GlcNAc(b1-6)]Man(a1-6)[Gal(b1-3)GlcNAc(b1-2)Man(a1-3)]Man(b1-4)GlcNAc(b1-4)GlcNAc
# Outline: as §1
# [4] = target: Gal(b1-3)GlcNAc(b1-3)Gal(b1-3)GlcNAc
# Outline: as §1
# [5] = target: Gal(b1-3)GlcNAc(b1-3)Gal(b1-4)Glc
# Outline: as §1
# [6] = target: Gal(b1-3)GlcNAc(b1-3)Gal(b1-4)GlcNAc
# Outline: as §1
# [7] = target: Gal(b1-3)GlcNAc(b1-3)Gal(b1-4)GlcNAc(b1-2)Man(a1-3)[Gal(b1-3)GlcNAc(b1-3)Gal(b1-4)GlcNAc(b1-2)Man(a1-6)]Man(b1-4)GlcNAc(b1-4)GlcNAc
# Outline: as §1
# [8] = target: Gal(b1-3)GlcNAc(b1-3)Gal(b1-4)GlcNAc(b1-2)[Gal(b1-3)GlcNAc(b1-3)Gal(b1-4)GlcNAc(b1-6)]Man(a1-6)[Gal(b1-3)GlcNAc(b1-3)Gal(b1-4)GlcNAc(b1-2)Man(a1-3)]Man(b1-4)GlcNAc(b1-4)[Fuc(a1-6)]GlcNAc
# Outline: as §1
# [9] = target: Gal(b1-3)GlcNAc(b1-3)Gal(b1-4)GlcNAc(b1-3)Gal(b1-4)GlcNAc(b1-2)[Gal(b1-3)GlcNAc(b1-3)Gal(b1-4)GlcNAc(b1-3)Gal(b1-4)GlcNAc(b1-6)]Man(a1-6)[Gal(b1-3)GlcNAc(b1-3)Gal(b1-4)GlcNAc(b1-3)Gal(b1-4)GlcNAc(b1-2)Man(a1-3)]Man(b1-4)GlcNAc(b1-4)[Fuc(a1-6)]GlcNAc
# Outline: as §1
# [10] = target: Gal(b1-3)GlcNAc(b1-3)Gal(b1-4)GlcNAc(b1-6)[Gal(b1-3)GlcNAc(b1-3)]Gal(b1-4)Glc
# Outline: as §1
# [11] = target: Gal(b1-3)GlcNAc(b1-3)Gal(b1-4)[Fuc(a1-3)]GlcNAc
# Outline: as §1
# [12] = target: Gal(b1-3)GlcNAc(b1-3)Gal(b1-4)[Fuc(a1-3)]GlcNAc(b1-6)[Gal(b1-3)GlcNAc(b1-3)]Gal(b1-4)Glc
# Outline: as §1
# [13] = target: Gal(b1-3)GlcNAc(b1-3)GalNAc
# Outline: as §1
# [14] = target: Gal(b1-3)GlcNAc(b1-6)Gal(b1-4)GlcNAc
# Outline: as §1
# [15] = target: Gal(b1-3)GlcNAc(b1-6)GalNAc
# Outline: as §1
# [16] = target: Gal(b1-3)GlcNAc(b1-6)[Gal(b1-3)]GalNAc
# Outline: as §1
# Gal(b1-3)GlcNAc6S = target: Gal(b1-3)GlcNAc6S
# Outline: as §1
# [17] = target: Gal(b1-3)[Fuc(a1-4)]GlcNAc
# Outline: as §1
# [18] = target: Gal(b1-3)[Fuc(a1-4)]GlcNAc(b1-2)Man
# Outline: as §1
# [19] = target: Gal(b1-3)[Fuc(a1-4)]GlcNAc(b1-2)Man(a1-3)[Gal(b1-3)[Fuc(a1-4)]GlcNAc(b1-2)Man(a1-6)]Man(b1-4)GlcNAc(b1-4)[Fuc(a1-6)]GlcNAc
# Outline: as §1
# [20] = target: Gal(b1-3)[Fuc(a1-4)]GlcNAc(b1-3)Gal(b1-3)[Fuc(a1-4)]GlcNAc
# Outline: as §1
# [21] = target: Gal(b1-3)[Fuc(a1-4)]GlcNAc(b1-3)Gal(b1-4)[Fuc(a1-3)]GlcNAc
# Outline: as §1
# [22] = target: Gal(b1-3)[Fuc(a1-4)]GlcNAc(b1-6)GalNAc
# Outline: as §1
# [23] = target: Gal(b1-3)[GlcNAc(b1-6)]GalNAc
# Outline: as §1
# [24] = target: Gal(b1-3)[Neu5Ac(a2-6)]GalNAc
# Outline: as §1
# [25] = target: Gal(b1-3)[Neu5Ac(a2-6)]GlcNAc(b1-4)Gal(b1-4)Glc
# Outline: as §1
# [26] = target: Gal(b1-3)[Neu5Ac(b2-6)]GalNAc
# Outline: as §1
# Gal(b1-4)Gal = target: Gal(b1-4)Gal
# Outline: as §1
# [27] = target: Gal(b1-4)GalNAc(a1-3)[Fuc(a1-2)]Gal(b1-4)GlcNAc
# Outline: as §1
# [28] = target: Gal(b1-4)GalNAc(b1-3)[Fuc(a1-2)]Gal(b1-4)GlcNAc
# Outline: as §1
binder,measurement,setting,value
TAL6-6LysM (Trichoderma atroviride) (protein) AASKLGVPQPAQRDQVNCQLYAVQPNDNCIDISSKNNITYAQLLSWNPSLSSTCSNLASLNSSSICVSNPKGTFSISSNTVGATDIATTTAPVPSPTLDQTTSRCAKYYQVSDGDDCSHLTAQFAITLKDFIFLNSEVWQNCTNLELGYYYCVEPVGYISTYPGYLPTATTKPFNQTSATSLPYDGDPWARFSSNSSVIPIANGTRVDCYSYVYVKNLTENLFADCWNMASMYEITREELVLWNPSLGNDGSSGSNLSGAEASQVASSIAIPTTAPSSITTNLYTYPCTVAANISYCVALVSSTGALPTNTAPPGPHASGEISNCTAWFAPEAYDTCKSILDIFEMSFANFYKMNPSVGPDCSGLAVGTNYCVSTYPNGEDPNDDWDGDDSIPSISPTGIITPTPTQSGMVSNCNKFYDVHSNDGCSAIASSQHVDLSSLYKWNPAIKTDCSGLQASVYVCIGILTTSMSTTSKLPTTTSKPSTTSKPPTGITTPTPTQSGMVKNCNKFYDVHSGDGCSAIASSQKVNLSSFYLWNPAVKTDCSGLQASVFVCIGTLTTSMSTTTSKLPTTTSKPSTTSKPPTGIITPTPTQNGMVKNCNKFYDVHSGDGCSAIASSQKVNLSSFYLWNPAVKTDCSGLQASVFVCVGTATTTTAAGITTPTPTQSGMVSGCNKFYDVHAGDGCSAIASSQKIALSSLYKWNPAVKTDCSGLQASVYICIGVGNAAAARVTGAAASFLEQKLISEEDLNSAVDHHHHHH,glycan array binding signal (z-score),[1],-0.231
same,glycan array binding signal (z-score),[2],-0.061
same,glycan array binding signal (z-score),[3],-0.157
same,glycan array binding signal (z-score),[4],1.47
same,glycan array binding signal (z-score),[5],-0.602
same,glycan array binding signal (z-score),[6],-0.571
same,glycan array binding signal (z-score),[7],0.356
same,glycan array binding signal (z-score),[8],-0.913
same,glycan array binding signal (z-score),[9],0.008
same,glycan array binding signal (z-score),[10],-1.31
same,glycan array binding signal (z-score),[11],-0.428
same,glycan array binding signal (z-score),[12],-1.39
same,glycan array binding signal (z-score),[13],-0.729
same,glycan array binding signal (z-score),[14],0.848
same,glycan array binding signal (z-score),[15],-0.12
same,glycan array binding signal (z-score),[16],-1.01
same,glycan array binding signal (z-score),Gal(b1-3)GlcNAc6S,-0.289
same,glycan array binding signal (z-score),[17],0.802
same,glycan array binding signal (z-score),[18],0.149
same,glycan array binding signal (z-score),[19],-0.76
same,glycan array binding signal (z-score),[20],0.447
same,glycan array binding signal (z-score),[21],-1.2
same,glycan array binding signal (z-score),[22],1.02
same,glycan array binding signal (z-score),[23],-0.67
same,glycan array binding signal (z-score),[24],-0.095
same,glycan array binding signal (z-score),[25],-0.503
same,glycan array binding signal (z-score),[26],0.533
same,glycan array binding signal (z-score),Gal(b1-4)Gal,-0.397
same,glycan array binding signal (z-score),[27],0.916
same,glycan array binding signal (z-score),[28],-1.31

# Two entries from above, as tab-separated lines:
binder	measurement	setting	value
TAL6-6LysM (Trichoderma atroviride) (protein) AASKLGVPQPAQRDQVNCQLYAVQPNDNCIDISSKNNITYAQLLSWNPSLSSTCSNLASLNSSSICVSNPKGTFSISSNTVGATDIATTTAPVPSPTLDQTTSRCAKYYQVSDGDDCSHLTAQFAITLKDFIFLNSEVWQNCTNLELGYYYCVEPVGYISTYPGYLPTATTKPFNQTSATSLPYDGDPWARFSSNSSVIPIANGTRVDCYSYVYVKNLTENLFADCWNMASMYEITREELVLWNPSLGNDGSSGSNLSGAEASQVASSIAIPTTAPSSITTNLYTYPCTVAANISYCVALVSSTGALPTNTAPPGPHASGEISNCTAWFAPEAYDTCKSILDIFEMSFANFYKMNPSVGPDCSGLAVGTNYCVSTYPNGEDPNDDWDGDDSIPSISPTGIITPTPTQSGMVSNCNKFYDVHSNDGCSAIASSQHVDLSSLYKWNPAIKTDCSGLQASVYVCIGILTTSMSTTSKLPTTTSKPSTTSKPPTGITTPTPTQSGMVKNCNKFYDVHSGDGCSAIASSQKVNLSSFYLWNPAVKTDCSGLQASVFVCIGTLTTSMSTTTSKLPTTTSKPSTTSKPPTGIITPTPTQNGMVKNCNKFYDVHSGDGCSAIASSQKVNLSSFYLWNPAVKTDCSGLQASVFVCVGTATTTTAAGITTPTPTQSGMVSGCNKFYDVHAGDGCSAIASSQKIALSSLYKWNPAVKTDCSGLQASVYICIGVGNAAAARVTGAAASFLEQKLISEEDLNSAVDHHHHHH	glycan array binding signal (z-score)	[10]	-1.31
same	glycan array binding signal (z-score)	[23]	-0.67
